Some of the results follow.
compound: CC1Cc2ccccc2N1C(=O)C1CCCN(C1)C(=O)CCl (mixture of isomers) [TRIM25 ligand 11 (diastereomer mixture)]; assay: probe-labelled cysteine peptide fold change vs DMSO (competition) (log2 fold change); higher = less target engagement (more negative = stronger competition); conditions: 10 µM; THP-1; incubation time: 4 h
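Further: competitive chemoproteomic profiling in live THP-1 cells with an iodoacetamide desthiobiotin (IA-DTB) probe, comparing probe-labelled peptide intensities in compound-treated cells against DMSO-treated controls.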

Point of comparison: “FLNB_O75369_991_VVPCLVTPVTGR (UniProt O75369)”, “probe-labelled cysteine peptide fold change” value 0.0198. Against it:
- FHL2_Q14192_251_QWHNDCFNCK (UniProt Q14192) — higher, 0.0366
- FTO_Q9C0B1_308_ISWDIETPGLAIPLHQGDCYFMLDDLNATHQHCVLAGSQPR (UniProt Q9C0B1) — higher, 0.0718
- FKBP15_Q5T1M5_809_CEHLLASAK (UniProt Q5T1M5) — lower, -0.0577
- FOXRED1_Q96CU9_239_KVQSLGVLFCQGEVTR (UniProt Q96CU9) — higher, 0.161
- FKBP3_Q00688_133_KGDVVHCWYTGTLQDGTVFDTNIQTSAK (UniProt Q00688) — lower, -0.197
- FGG_P02679_365_CHAGHLNGVYYQGGTYSK (UniProt P02679) — higher, 0.519
- FOXM1_Q08050_56_EVAESNSCK (UniProt Q08050) — higher, 0.0529
- FRRS1_Q6ZNA5_107_NAEDLNGPPIGSFTLIDSEVSQLLTCEDIQGSAVSHR (UniProt Q6ZNA5) — higher, 0.66
- FLNB_O75369_1876_DGTCTVTYLPTLPGDYSILVK (UniProt O75369) — lower, -0.167
- FIP1L1_Q6UN15_216_ITAEDCTMEVTPGAEIQDGR (UniProt Q6UN15) — higher, 0.161
- FHL2_Q14192_7_FDCHHCNESLFGK (UniProt Q14192) — higher, 0.0456
- FRYL_O94915_1575_VMEHNQGEPLPFPPAGGCWSPLVDYVPETSSPGLPLHR (UniProt O94915) — higher, 0.201
- FKBP8_Q14318_195_SPYIPPHAALCLEVTLK (UniProt Q14318) — higher, 0.0328
- FLCN_Q8NFG4_454_STLHPVGCEDDQSLSK (UniProt Q8NFG4) — higher, 0.135
- FTO_Q9C0B1_392_CTDWWCQPMAQLEALWK (UniProt Q9C0B1) — lower, -0.232
- GAK_O14976_595_SGCRPFCEVYVGDER (UniProt O14976) — lower, -0.0475
- FKBP8_Q14318_227_ECGNAHYQR (UniProt Q14318) — higher, 0.252
- FUBP3_Q96I24_125_IQIASESSGIPERPCVLTGTPESIEQAKR (UniProt Q96I24) — lower, -0.00226
- FUCA2_Q9BTY2_269_WGAGSICK (UniProt Q9BTY2) — lower, -0.04
- FHL1_Q13642-1_276_FVFHQEQVYCPDCAK (UniProt Q13642) — higher, 0.215
- FN3KRP_Q9HA64_24_ATGHSGGGCISQGR (UniProt Q9HA64) — lower, -0.0578
- FKBP4_Q02790_396_TQLAVCQQR (UniProt Q02790) — higher, 0.0681
- FLII_Q13045_576_NYLGAECR (UniProt Q13045) — lower, 0.00174
- FKBP5_Q13451_215_MQREEQCILYLGPR (UniProt Q13451) — lower, -0.162
- FTH1_P02794_91_KPDCDDWESGLNAMECALHLEK (UniProt P02794) — higher, 0.166
- FTO_Q9C0B1_294+308_ISWDIETPGLAIPLHQGDCYFMLDDLNATHQHCVLAGSQPR (UniProt Q9C0B1) — lower, -0.257
- FLNB_O75369_416_CVYKPMQPGPHVVK (UniProt O75369) — lower, -0.138
- FSCN1_Q16658_226_VAFRDCEGR (UniProt Q16658) — lower, -0.335
- FGD3_Q5JSP0_284_QEVCGNLTLQHHMLEPVQR (UniProt Q5JSP0) — lower, 0.0112
- FKBP5_Q13451_103+107_KGEICHLLCKPEYAYGSAGSLPK (UniProt Q13451) — lower, -0.0629
- FHOD1_Q9Y613_43_RAPTCSLDGALPLGAQIPAVHR (UniProt Q9Y613) — lower, -0.183
- FRMD8_Q9BZ67_191_VQLGPYQPGRPAACDLR (UniProt Q9BZ67) — lower, -0.0885
- FTL_P02792_127_TDPHLCDFLETHFLDEEVK (UniProt P02792) — higher, 0.0234
- FHOD1_Q9Y613_936_LTHFLDQCAR (UniProt Q9Y613) — lower, -0.0135
- GAK_O14976_472_VSECGWAAR (UniProt O14976) — lower, -0.0728

same assay, conditions: 50 µM; THP-1; incubation time: 4 h

Point of comparison: “FKBP8_Q14318_195_SPYIPPHAALCLEVTLK (UniProt Q14318)”, “probe-labelled cysteine peptide fold change” value 0.193. Against it:
- FHL2_Q14192_251_QWHNDCFNCK (UniProt Q14192) — lower, 0.0232
- FTO_Q9C0B1_308_ISWDIETPGLAIPLHQGDCYFMLDDLNATHQHCVLAGSQPR (UniProt Q9C0B1) — lower, 0.149
- FKBP15_Q5T1M5_809_CEHLLASAK (UniProt Q5T1M5) — lower, -0.0854
- FOXRED1_Q96CU9_239_KVQSLGVLFCQGEVTR (UniProt Q96CU9) — lower, 0.0629
- FKBP3_Q00688_133_KGDVVHCWYTGTLQDGTVFDTNIQTSAK (UniProt Q00688) — lower, -0.269
- FGG_P02679_365_CHAGHLNGVYYQGGTYSK (UniProt P02679) — higher, 0.367
- FOXM1_Q08050_56_EVAESNSCK (UniProt Q08050) — lower, -0.0796
- FLNB_O75369_991_VVPCLVTPVTGR (UniProt O75369) — lower, 0.0861
- FRRS1_Q6ZNA5_107_NAEDLNGPPIGSFTLIDSEVSQLLTCEDIQGSAVSHR (UniProt Q6ZNA5) — higher, 0.341
- FLNB_O75369_1876_DGTCTVTYLPTLPGDYSILVK (UniProt O75369) — lower, 0.0836
- FIP1L1_Q6UN15_216_ITAEDCTMEVTPGAEIQDGR (UniProt Q6UN15) — lower, -0.0208
- FHL2_Q14192_7_FDCHHCNESLFGK (UniProt Q14192) — lower, 0.126
- FRYL_O94915_1575_VMEHNQGEPLPFPPAGGCWSPLVDYVPETSSPGLPLHR (UniProt O94915) — higher, 0.228
- FLCN_Q8NFG4_454_STLHPVGCEDDQSLSK (UniProt Q8NFG4) — lower, -0.148
- FTO_Q9C0B1_392_CTDWWCQPMAQLEALWK (UniProt Q9C0B1) — lower, -0.353
- GAK_O14976_595_SGCRPFCEVYVGDER (UniProt O14976) — lower, -0.0504
- FKBP8_Q14318_227_ECGNAHYQR (UniProt Q14318) — lower, 0.173
- FUBP3_Q96I24_125_IQIASESSGIPERPCVLTGTPESIEQAKR (UniProt Q96I24) — higher, 0.228
- FUCA2_Q9BTY2_269_WGAGSICK (UniProt Q9BTY2) — lower, -0.0426
- FHL1_Q13642-1_276_FVFHQEQVYCPDCAK (UniProt Q13642) — lower, 0.0469
- FN3KRP_Q9HA64_24_ATGHSGGGCISQGR (UniProt Q9HA64) — lower, -0.35
- FKBP4_Q02790_396_TQLAVCQQR (UniProt Q02790) — lower, 0.0787
- FLII_Q13045_576_NYLGAECR (UniProt Q13045) — lower, 0.107
- FKBP5_Q13451_215_MQREEQCILYLGPR (UniProt Q13451) — lower, -0.118
- FTH1_P02794_91_KPDCDDWESGLNAMECALHLEK (UniProt P02794) — higher, 0.847
- FTO_Q9C0B1_294+308_ISWDIETPGLAIPLHQGDCYFMLDDLNATHQHCVLAGSQPR (UniProt Q9C0B1) — lower, 0.0427
- FLNB_O75369_416_CVYKPMQPGPHVVK (UniProt O75369) — lower, -0.165
- FSCN1_Q16658_226_VAFRDCEGR (UniProt Q16658) — lower, -0.264
- FGD3_Q5JSP0_284_QEVCGNLTLQHHMLEPVQR (UniProt Q5JSP0) — lower, -0.0514
- FKBP5_Q13451_103+107_KGEICHLLCKPEYAYGSAGSLPK (UniProt Q13451) — lower, -0.0494
- FHOD1_Q9Y613_43_RAPTCSLDGALPLGAQIPAVHR (UniProt Q9Y613) — lower, -0.0603
- FRMD8_Q9BZ67_191_VQLGPYQPGRPAACDLR (UniProt Q9BZ67) — lower, -0.1
- FTL_P02792_127_TDPHLCDFLETHFLDEEVK (UniProt P02792) — higher, 0.276
- FHOD1_Q9Y613_936_LTHFLDQCAR (UniProt Q9Y613) — lower, 0.128
- GAK_O14976_472_VSECGWAAR (UniProt O14976) — lower, -0.068

— the supplement of paper PMC12067093, “Discovery and optimisation of a covalent ligand for TRIM25 and its application to targeted protein ubiquitination” (Chemical Science, 2025)
